Data: US20240165104A1, “TREATMENT OF DEPRESSION” (priority 2021, published 2024)
Some results were stated once for a whole list of compounds, not compound by compound.

Assay: Pharmacokinetics after administration of the subject combination
Conditions: given as the subject combination

In the case of `CC(NC(C)(C)C)C(=O)c1cccc(Cl)c1.Cl` (racemic) [bupropion, (±)-1-(3-chlorophenyl)-2-[(1,1-dimethylethyl)amino]-1-propanone hydrochloride], the “time to steady state plasma concentrations” value is reported as at most 8 days.
